At least one peptide structure holds a part that was inferred or is arguable (an end, a ring closure or a residue). Peptide text beside a SMILES is read from it.
Legend:
[1] = system: GG (GST-ICS epitope-GFP fusion) cleaved by interleukin converting enzyme (ICE); test: ICE cleavage of model substrate GG, substrate-targeted inhibition; assay type: biochemical, human
[2] = system: GM (GST-MBP fusion linked by a site in immature human ICE) cleaved by interleukin converting enzyme (ICE); test: ICE cleavage of model substrate GM, substrate-targeted inhibition; assay type: biochemical; details: purified ICE; substrate lacks the ICS epitope

SMILES: CC(C)C[C@H](NC(=O)[C@H](CCC(=O)O)NC(=O)[C@H](C)NC(=O)[C@H](CCC(=O)O)NC(=O)[C@H](CCCCN)NC(=O)[C@H](CCCNC(=N)N)NC(=O)[C@H](C)NC(=O)[C@@H](N)CCCCN)C(=O)N[C@@H](C)C(=O)N[C@@H](C)C(=O)N[C@@H](C)C(=O)N[C@H](C(=O)N[C@@H](C)C(=O)N[C@@H](CCC(=O)O)C(=O)N[C@@H](CCC(N)=O)C(=O)O)[C@@H](C)O [LEPB] (H-KARKEAELAAATAEQ-OH)
- Effect on cleavage of GG ([1]; purified ICE, substrate contains the ICS epitope): progressive inhibition
- IC50 ([1]; synthetic peptide titrated into reaction with purified ICE): 50 to 100 µM
- Effect on GM cleavage [2]: no detectable affect
